No constants are given. Whether binding was seen depends on the method and setting. Binding calls can cover weak binding; strength is not graded here.
Biological target: GST-USP17(ΔH) (human)
Assay: pull-down; GST or GST-USP17 fusions on glutathione agarose beads incubated with recombinant ELK-1, ELK-1 deletion mutants or ERK2; bound proteins detected by immunoblotting with an anti-His antibody; both purified

binding: binds
B1: recombinant ELK-1 (protein, UniProt P19419 1-428)
chain: MDPSVTLWQFLLQLLREQGNGHIISWTSRDGGEFKLVDAEEVARLWGLRKNKTNMNYDKLSRALRYYYDKNIIRKVSGQKFVYKFVSYPEVAGCSTEDCPPQPEVSVTSTMPNVAPAAIHAAPGDTVSGKPGTPKGAGMAGPGGLARSSRNEYMRSGLYSTFTIQSLQPQPPPHPRPAVVLPSAAPAGAAAPPSGSRSTSPSPLEACLEAEEAGLPLQVILTPPEAPNLKSEELNVEPGLGRALPPEVKVEGPKEELEVAGERGFVPETTKAEPEVPPQEGVPARLPAVVMDTAGQAGGHAASSPEISQPQKGRKPRDLELPLSPSLLGGPGPERTPGSGSGSGLQAPGPALTPSLLPTHTLTPVLLTPSSLPPSIHFWSTLSPIAPRSPAKLSFQFPSSGSAQVHIPSISVDGLSTPVVLSPGPQKP

Source: publication PMC6511843
